{"sequences": {"note": "By UniProt entry, the sequences of proteins in these tests, tags left out. Residues count along the entry.", "UniProt P04070, 43-197 partner limits assumed": "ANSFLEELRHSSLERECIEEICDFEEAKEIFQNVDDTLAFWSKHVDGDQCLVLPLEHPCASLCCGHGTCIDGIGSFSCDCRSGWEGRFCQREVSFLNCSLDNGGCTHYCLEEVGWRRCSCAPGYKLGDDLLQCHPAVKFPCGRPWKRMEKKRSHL", "UniProt P04070, 212-461 limits assumed": "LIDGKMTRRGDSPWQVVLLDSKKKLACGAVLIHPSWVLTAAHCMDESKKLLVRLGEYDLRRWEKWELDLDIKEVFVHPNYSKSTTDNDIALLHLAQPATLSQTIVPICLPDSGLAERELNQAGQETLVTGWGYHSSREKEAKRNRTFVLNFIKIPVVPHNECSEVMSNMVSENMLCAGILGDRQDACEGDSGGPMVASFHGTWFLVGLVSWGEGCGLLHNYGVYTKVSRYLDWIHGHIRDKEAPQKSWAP"}, "source": "patent US10028999B2", "about": "“PAR-1 based therapeutic conjugates and uses thereof” (TEL HASHOMER MEDICAL RESEARCH INFRASTRUCTURE AND SERVICES …, priority 2014, dated 2018)", "key": {"[1]": {"tested_on": "Factor Xa", "test": "Factor Xa activity test", "type": "biochemical", "details": "100 μM"}, "[2]": {"biological_target": "Protein C (Homo sapiens, UniProt P04070)", "test": "Protein C activity test", "type": "biochemical", "details": "for aPC: without conjugate 109"}}, "note": "Part of at least one peptide drawing is inferred or uncertain, most often the ends. Peptide text beside a SMILES is read from it. * marks the point of attachment. Tos = Cc1ccc(S(=O)(=O)*)cc1; CH2Cl = ClC*"}
{"smiles": "Cc1ccc(S(=O)(=O)N[C@@H](CC(C)C)C(=O)N[C@@H](CC(=O)O)C(=O)N2CCC[C@H]2C(=O)N[C@@H](CCCNC(=N)N)C(=O)CCl)cc1", "note": "[4AA, tosyl-LDPR-CK] (Tos-LDPR-CH2Cl)", "values": [{"measurement": "Potency score in Factor Xa activity test", "setting": "[1]; most potent (1) to least potent (5)", "value": 5}, {"measurement": "Fxa", "setting": "[1]; without conjugate 0.11", "value": 0.11}, {"measurement": "aPC", "setting": "[2]; 1 μM", "value": 108}, {"measurement": "Potency score in Protein C activity test", "setting": "[2]; 100 μM, most potent (1) to least potent (5)", "value": 5}, {"measurement": "aPC", "setting": "[2]; 100 μM", "value": 66}]}
